Experimental data published in doi:10.1101/2025.04.06.647449.

Molecular target: Mlla HNH-APAZ (Myxococcus llanfairpwllgwyngyllgogerychwyrndrobwllllantysiliogogogochensis)
Experiment: SEC-MALS

binding: binds
Substance: MllaAgo (from UniProt A0A540WXI1)

Results are given in words; binding and its absence hold for the method and conditions named. Binding can be weak; no strength is given.
